Laboratory results from patent US20200115353A1, “NEW COMPOUNDS INHIBITORS OF THE YAP/TAZ-TEAD INTERACTION AND THEIR USE IN THE TREATMENT OF MALIGNANT MESOTHELIOMA” (INVENTIVA, priority 2017, published 2020).
At least one structure is not confirmed: it was looked up by name or label, or the drawing left a doubt.

Tests used:
[1] = system: NCI-H2052 mesothelioma cell line; assay: Inhibition of malignant mesothelioma tumor cell growth (EdU proliferation); type: cell-based; conditions: NF2 mutated cell line, 0.1-30 μM, FIG. 1
Experimental: (§1) The tumor cell growth inhibitory activity of the YAP-TEAD interaction inhibitors was evaluated in NCI-H2052 mesothelioma cell line harboring a NF2 mutation. This cell line was selected based on its mutational status and the ability of a siRNA directed against YAP, TAZ or TEAD1-4 to inhibit cell proliferation. The nuclear localization of YAP at confluence was also taken into account. Based on these observations we were able to classify several “YAP dependent cells” where YAP is clearly nuclear and in which a cell growth inhibition is observed by using siRNA (NCI-H2052, SKOV-3, ACHN, A549) and the “YAP independent cells” where YAP is preferentially located in the cytoplasm and in which no inhibition of cell growth is observed by using a siRNA (SW620, Met-5a). […] After one day growth in the starvation medium, cells were incubated with compounds. […] Image acquisition was performed using the ImageXpress Micro and analysed using the MetaXpress software (Molecular Device).
(§2) Results were expressed as a percent of inhibition (%) of the cell proliferation values obtained with 0.5% DMSO treatment alone. The cellular response was determined by fitting the concentration response curves using a 3 parameter curve fit equation and determining the concentration that inhibited cell growth between 50% and 100%.

Met5A cell line = assay: Cell proliferation in YAP-independent cell line (EdU); type: cell-based; conditions: FIG. 1
Experimental: as §1, §2

Which results are given for `CC(C)CN(/N=C/c1ccc2[nH]c(=O)n(C)c2c1)C1=NS(=O)(=O)c2cc(B(O)O)ccc21` [Ex 65, [3-[isobutyl-[(E)-(3-methyl-2-oxo-1H-benzimidazol-5-yl)methyleneamino]amino]-1,1-dioxo-1,2-benzothiazol-6-yl]boronic acid]?
NCI-H2052 mesothelioma cell proliferation [1]: inhibited NCI-H2052 mesothelioma cell proliferation; effect on proliferation of Met5A cell line (Met5A cell line): without showing any effect
